According to patent EP2913057B1, “Cancer peptide therapeutics” (Indiana University Research and Technology Corporation, priority 2008, dated 2010):
Part of at least one peptide drawing is inferred or uncertain, most often the ends.

Tested on: MCF 7 (breast cancer)
Test: Cytotoxic effect in malignant breast cells, cell death by flow cytometry
Format: cell-based
Conditions: MCF 7, 50 mM R9-caPeptide, 48 hours
Description: The R9-caPeptide was evaluated for cytotoxic effects in non-malignant (MCF 10A) and malignant (MCF 7) breast cells (Table 6). The cells were treated with 50 mM R9-caPeptide for 48 hours and the extent of cell death was evaluated by flow cytometry. […] The significant level of cytotoxicity in breast cancer cells is likely due to enhanced binding interaction of caPeptide with specific DNA repair proteins in these cells, as indicated for example by the observed preferential binding of caPCNA for XPG protein, leading to an inhibition of DNA repair in these cells, and ultimately cell death.

CC[C@H](C)[C@H](NC(=O)CNC(=O)[C@H](CC(C)C)NC(=O)[C@H](CS)NC(=O)[C@H](CS)NC(=O)[C@@H](CCCNC(=N)N)NC(=O)[C@@H](CCCNC(=N)N)NC(=O)[C@@H](CCCNC(=N)N)NC(=O)[C@@H](CCCNC(=N)N)NC(=O)[C@@H](CCCNC(=N)N)NC(=O)[C@@H](CCCNC(=N)N)NC(=O)[C@@H](CCCNC(=N)N)NC(=O)[C@@H](CCCNC(=N)N)NC(=O)[C@H](N)CCCNC(=N)N)C(=O)N1CCC[C@H]1C(=O)N[C@@H](CCC(=O)O)C(=O)N[C@@H](CCC(N)=O)C(=O)N[C@@H](CCC(=O)O)C(=O)N[C@@H](Cc1ccc(O)cc1)C(=O)O [R9-caPep]
% Dead Cells: 91.5%
